Measured data: PubChem BioAssay AID1224828 (NIAID, 2016)

- Test: 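Regulators linking TLR4 signalling to p65 nuclear translocation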 (primary screen)
- System: mouse RAW264.7 G9 macrophage reporter cells (GFP-p65, Tnf promoter-mCherry)
- Reagent: siRNA pool against mouse genes, 100 nM
- Timing: 2 days siRNA transfection, then 40 min LPS before fixation
- Challenge: LPS (Salmonella minnesota R595) at 10 ng/ml
- Detection: 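Imaged p65 nuclear translocation ratio, normalised to the plate median, converted to robust z-scores and averaged across two replicates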
- Reading the numbers: p65 translocation robust z-score: higher = more nuclear NF-kappaB p65 after LPS than the plate median; nuclear/cytoplasmic p65 ratio: higher = more nuclear NF-kappaB p65
- Rule for the call: 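Called active when z exceeds 3.3 or falls under -1.56 (median of Tlr4 controls), giving activity score of at least 50; no calls for control wells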
- Meaning of the calls: active = hit (p65 shift raised or lowered); inactive = no clear change
The deposit covers about 17,000 reagents; shown is a random part of them. 762 of all reagents (4.5%) were called active. 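Active calls include both raised and lowered p65 entry, mostly lowered; wells with fewer than 50 cells lack a z-score.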 Raw values vary from plate to plate and are shown uncorrected. Entries without a mark were called inactive. A reagent listed more than once was tested more than once; the source does not tell the runs apart. Reagent sequences are not shown.

gene | p65 translocation robust z-score | nuclear/cytoplasmic p65 ratio, rep 1 | nuclear/cytoplasmic p65 ratio, rep 2 | low cell count flag
Slc22a26 | -0.23 | 1.63 | 1.71 | enough cells to score
Or8b12i (olfactory receptor family 8 subfamily B member 12I) | 0.23 | 1.43 | 1.34 | enough cells to score
Pdpr (pyruvate dehydrogenase phosphatase regulatory subunit) | 1.4 | 1.85 | 1.8 | enough cells to score
Rbm17 (RNA binding motif protein 17) | 1.53 | 1.65 | 1.36 | enough cells to score
Dcaf11 (DDB1 and CUL4 associated factor 11) | -0.59 | 1.46 | 1.18 | enough cells to score
Slc7a4 | 1.72 | 1.61 | 1.46 | enough cells to score
Snw1 (SNW domain containing 1) | 0.11 | 1.44 | 1.25 | enough cells to score
Hivep3 | -0.48 | 1.36 | 1.33 | enough cells to score
Apcdd1 (adenomatosis polyposis coli down-regulated 1) | 0.15 | 1.4 | 1.55 | enough cells to score
Tgfbi (transforming growth factor, beta induced) | -0.24 | 1.47 | 1.5 | enough cells to score
Myo1d (myosin ID) | 2.09 | 1.79 | 1.76 | enough cells to score
Clec4e (C-type lectin domain family 4, member e) | -1.11 | 1.41 | 1.62 | enough cells to score
S100a14 (S100 calcium binding protein A14) | -0.05 | 1.53 | 1.49 | enough cells to score
Ppm1a (protein phosphatase 1A, magnesium dependent, alpha isoform) | 0.47 | 1.56 | 1.47 | enough cells to score
Smad3 (SMAD family member 3) | -1.22 | 1.37 | 1.39 | enough cells to score
Ces1g (carboxylesterase 1G) | -0.32 | 1.51 | 1.77 | enough cells to score
Or6d12 (olfactory receptor family 6 subfamily D member 12) | – | 1.22 | 1.32 | fewer than 50 cells per well; well left out of scoring
Slc30a4 | – | 1.67 | 1.12 | fewer than 50 cells per well; well left out of scoring
Stk38 (serine/threonine kinase 38) | 1.06 | 1.77 | 1.59 | enough cells to score
Or10d5 (olfactory receptor family 10 subfamily D member 5) | 2.1 | 1.72 | 1.2 | enough cells to score
Pfdn1 (prefoldin 1) | 0.17 | 1.51 | 1.4 | enough cells to score
Clec11a (C-type lectin domain family 11, member a) | 0.28 | 1.55 | 1.64 | enough cells to score
H2-Aa (histocompatibility 2, class II antigen A, alpha) | 0.02 | 1.42 | 1.39 | enough cells to score
H3c8 (H3 clustered histone 8) | 0.97 | 1.67 | 1.58 | enough cells to score
Map2 (microtubule-associated protein 2) | 0.59 | 1.52 | 1.42 | enough cells to score
Slc6a5 | 0.39 | 1.5 | 1.26 | enough cells to score
Nacc2 | 1.37 | 0.975 | 1.72 | enough cells to score
Eif6 (eukaryotic translation initiation factor 6) | -0.5 | 1.46 | 1.39 | enough cells to score
4833420G17Rik (RIKEN cDNA 4833420G17 gene) | – | 1.47 | 1.24 | fewer than 50 cells per well; well left out of scoring
Vps16 (VSP16 CORVET/HOPS core subunit) | 1.21 | 1.59 | 1.33 | enough cells to score
Nuak2 (NUAK family, SNF1-like kinase, 2) | 1.27 | 1.69 | 1.55 | enough cells to score
Nuak2 (NUAK family, SNF1-like kinase, 2) | – | 1.36 | 1.16 | fewer than 50 cells per well; well left out of scoring
Rfxap (regulatory factor X-associated protein) | -1.43 | 1.19 | 1.31 | enough cells to score
Slc25a25 | – | 1.23 | 1.19 | fewer than 50 cells per well; well left out of scoring
Prb1a (proline-rich protein BstNI subfamily 1A) | -1.39 | 1.31 | 1.38 | enough cells to score
Fshr (follicle stimulating hormone receptor) | 0.07 | 1.5 | 1.61 | enough cells to score
Klhl20 (kelch-like 20) | -0.66 | 1.45 | 1.38 | enough cells to score
Or11h4 (olfactory receptor family 11 subfamily H member 4) | – | 1.59 | 1.38 | fewer than 50 cells per well; well left out of scoring
Tkfc (triokinase, FMN cyclase) | -0.06 | 1.68 | 1.38 | enough cells to score
Ca11 (carbonic anhydrase 11) | -1.38 | 1.42 | 1.52 | enough cells to score
Ucp3 | 0.8 | 1.59 | 1.65 | enough cells to score
Tal1 (T cell acute lymphocytic leukemia 1) | -0.48 | 1.46 | 1.44 | enough cells to score
Arl9 (ADP-ribosylation factor-like 9) | -1.29 | 1.28 | 1.19 | enough cells to score
Cep170 (centrosomal protein 170) | 0.33 | 1.66 | 1.67 | enough cells to score
Smg9 (SMG9 nonsense mediated mRNA decay factor) | -1.76 (active) | 1.28 | 1.22 | enough cells to score
Gpd1l (glycerol-3-phosphate dehydrogenase 1-like) | -2.63 (active) | 1.13 | 1.23 | enough cells to score
Zfp263 (zinc finger protein 263) | – | 1.42 | 1.41 | fewer than 50 cells per well; well left out of scoring
Cdh17 (cadherin 17) | 0.4 | 1.56 | 1.39 | enough cells to score
Phtf1 (putative homeodomain transcription factor 1) | -0.99 | 1.37 | 1.27 | enough cells to score
Srek1ip1 | -1.02 | 1.16 | 1.2 | enough cells to score
Ddx28 (DEAD box helicase 28) | -2.11 (active) | 1.17 | 1.27 | enough cells to score
Relch | – | 1.19 | 1.19 | fewer than 50 cells per well; well left out of scoring
Or1j17 (olfactory receptor family 1 subfamily J member 17) | -1.41 | 1.4 | 1.24 | enough cells to score
Serpinb6a (serine (or cysteine) peptidase inhibitor, clade B, member 6a) | 0.16 | 1.53 | 1.62 | enough cells to score
Hyal5 (hyaluronoglucosaminidase 5) | -0.15 | 1.58 | 1.6 | enough cells to score
Slc14a2 | 0.01 | 1.43 | 1.61 | enough cells to score
Defb10 (defensin beta 10) | – | 1.4 | 1.32 | fewer than 50 cells per well; well left out of scoring
Ccng2 (cyclin G2) | 0.71 | 1.47 | 1.47 | enough cells to score
Cog8 (component of oligomeric golgi complex 8) | 0.58 | 1.68 | 1.86 | enough cells to score

9 successive reagents from above, quoted:
gene | p65 translocation robust z-score | nuclear/cytoplasmic p65 ratio, rep 1 | nuclear/cytoplasmic p65 ratio, rep 2 | low cell count flag
Stk38 (serine/threonine kinase 38) | 1.06 | 1.77 | 1.59 | enough cells to score
Or10d5 (olfactory receptor family 10 subfamily D member 5) | 2.1 | 1.72 | 1.2 | enough cells to score
Pfdn1 (prefoldin 1) | 0.17 | 1.51 | 1.4 | enough cells to score
Clec11a (C-type lectin domain family 11, member a) | 0.28 | 1.55 | 1.64 | enough cells to score
H2-Aa (histocompatibility 2, class II antigen A, alpha) | 0.02 | 1.42 | 1.39 | enough cells to score
H3c8 (H3 clustered histone 8) | 0.97 | 1.67 | 1.58 | enough cells to score
Map2 (microtubule-associated protein 2) | 0.59 | 1.52 | 1.42 | enough cells to score
Slc6a5 | 0.39 | 1.5 | 1.26 | enough cells to score
Nacc2 | 1.37 | 0.975 | 1.72 | enough cells to score
